Values of other authors, collected in patent EP0752872B1, “NADH OXIDASE AS A TARGET IN DIAGNOSIS AND THERAPY” (Morré, D. James, priority 1994, dated 1995).
For at least one compound, name, drawing or mass did not settle the structure.

System: plasma membrane NADH oxidase
Settings: addition at 0.1 µM; normal rat liver plasma membrane vesicles; no addition 0.72 ± 0.06; cited from earlier work

SMILES: CC1=C(/C=C/C(C)=C/C=C/C(C)=C/C(=O)O)C(C)(C)CCC1 [Retinoic acid]
- NADH oxidase: 0.54 ± 0.08 nmoles/min/mg protein
